Publication PMC10784468 (Nature Communications, 2024)
Positions of bridges follow the written chain, without caps; N, C: chain ends. Residues, ends and D or L forms follow the SMILES beside them. *: point of attachment. X1 = O=C(O)c1ccc(-c2c3nc(c(-c4ccc(C(=O)O)cc4)c4ccc([nH]4)c(-c4ccc(C(=O)*)cc4)c4nc(c(-c5ccc(C(=O)O)cc5)c5ccc2[nH]5)C=C4)C=C3)cc1; X2 = O=C(O)C/C(=C/C(=O)*)C(=O)O

Test system: EJ xenograft tumor
Assay: In situ self-assembly in tumor (NBD labeled, frozen sections)
Format: in vivo
Details: EJ xenograft mice, 8 mg/kg i.v.

Compound | in situ self-assembly in tumor, NBD fluorescence
FeTCPP-LKLKLK(SA)GACNWLPLYPCPV (disulfide) [Gi-F-SA, control conjugate decorated with non-sensitive succinic anhydride (SA) moieties] | not in Gi-F-SA groups
FeTCPP-LKLKLKGACNWLPLYPCPV (disulfide) [Gi-F] | moderate green fluorescence
CC(C)C[C@H](NC(=O)c1ccc(-c2c3nc(c(-c4ccc(C(=O)O)cc4)c4ccc([nH]4)c(-c4ccc(C(=O)O)cc4)c4nc(c(-c5ccc(C(=O)O)cc5)c5ccc2[nH]5)C=C4)C=C3)cc1)C(=O)N[C@@H](CCCCNC(=O)/C=C(/CC(=O)O)C(=O)O)C(=O)N[C@@H](CC(C)C)C(=O)N[C@@H](CCCCN)C(=O)N[C@@H](CC(C)C)C(=O)N[C@@H](CCCCNC(=O)/C=C(/CC(=O)O)C(=O)O)C(=O)NCC(=O)N[C@@H](C)C(=O)N[C@H]1CSSC[C@@H](C(=O)N2CCC[C@H]2C(=O)N[C@H](C(=O)O)C(C)C)NC(=O)[C@@H]2CCCN2C(=O)[C@H](Cc2ccc(O)cc2)NC(=O)[C@H](CC(C)C)NC(=O)[C@@H]2CCCN2C(=O)[C@H](CC(C)C)NC(=O)[C@H](Cc2c[nH]c3ccccc23)NC(=O)[C@H](CC(N)=O)NC1=O [Gi-F-CAA] (X1-LK(X2)LKLK(X2)GACNWLPLYPCPV-OH; disulfide 9-17; C-terminus assumed) | obvious green fluorescence
